PubChem BioAssay AID504764 | Drosophila RNAi Screening Center | 2011
The screen tested about 22,000 reagents; this is a random part of those that have a named target and a result. Of all reagents, 403 (1.9%) got an active call. 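Unnormalised raw counts per well; ratio z-scores behind the hit calls and whether each hit raises or lowers signal are not deposited.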 Reagents against one gene are numbered here. Not given: the amount of reagent.

- Test: 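Genome-wide screen for regulators of Notch-driven gene expression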 (primary screen)
- Cells: Drosophila Kc167 cells
- Reagents: long dsRNA against Drosophila genes
- Time to read-out: about 5 days (4 days dsRNA, then 24 h after transfection)
- Challenge: transfection of constitutively active membrane-tethered Notch lacking the extracellular domain, read 24 h later
- Detection: 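Firefly luciferase from an E(spl)m3 reporter with active Notch, plus control-promoter and uninduced reporter wells for normalisation; unnormalised counts, duplicate wells a and b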
- Scale: induced reporter light, run 1, well a and induced reporter light, run 1, well b: higher = more light from the Notch target reporter with active Notch; control promoter light, run 1, well a and control promoter light, run 1, well b: higher = more light from the viral control promoter (cell number, transfection, viability); uninduced reporter light, run 1, well a: higher = more light from the Notch target reporter without active Notch
- Hit rule: 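Hit if the duplicate-averaged log2 ratio of induced to control-promoter light gives a plate-wise z beyond ±2, or induced to uninduced beyond ±1.8; weak-control or discordant-duplicate wells dropped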
- Calls: active = modifier hit (raised or lowered Notch signal); inactive = not a hit

no.	gene	reagent	induced reporter light, run 1, well a	induced reporter light, run 1, well b	control promoter light, run 1, well a	control promoter light, run 1, well b	uninduced reporter light, run 1, well a	activity call
1	se	1	1.93e5	1.75e5	2.31e5	1.37e5	9185	inactive
2	Tom40	1	90610	1.28e5	1.61e5	1.75e5	7700	inactive
3	Dh44-R2	1	98430	86865	1.20e5	1.17e5	9040	inactive
4	Dh44-R2	2	75135	70890	1.05e5	99780	7270	inactive
5	CG13564	1	1.49e5	1.54e5	1.69e5	1.50e5	11870	inactive
6	slp1	1	1.52e5	2.03e5	2.04e5	2.01e5	18250	inactive
7	bdg	1	1.44e5	1.22e5	2.56e5	2.21e5	10925	inactive
8	BaraC	1	1.04e5	81235	79245	86490	8405	inactive
9	Ak1	1	1.73e5	1.64e5	2.63e5	1.72e5	7228	inactive
10	CG4829	1	1.24e5	1.27e5	1.24e5	52205	11915	inactive
11	Uba4	1	1.58e5	1.77e5	94040	1.25e5	18375	inactive
12	Rab7	1	1.66e5	1.72e5	1.93e5	1.93e5	14960	inactive
13	Papss	1	1.03e5	95250	69945	68445	6390	inactive
14	Or45a	1	1.78e5	1.97e5	2.16e5	1.81e5	16785	inactive
15	ttm50	1	1.36e5	1.78e5	1.87e5	2.26e5	9615	inactive
16	CG14194	1	81270	71885	88980	1.03e5	9175	inactive
17	unc-13	1	60580	63820	83905	90570	5665	inactive
18	unc-13	2	65300	60105	92185	87415	4845	inactive
19	unc-13	3	1.78e5	1.60e5	2.19e5	2.02e5	14470	inactive
20	CG31368	1	57140	66010	71275	58170	5635	inactive
21	CG31368	2	1.28e5	1.55e5	1.01e5	1.06e5	9395	inactive
22	Toll-4	1	1.28e5	1.49e5	75665	85330	19955	inactive
23	CG13305	1	43910	36860	34015	38255	4705	inactive
24	atlas	1	2.33e5	2.02e5	2.30e5	1.99e5	16928	inactive
25	CG8679	1	55235	37000	40255	54880	2530	inactive
26	CG12680	1	1.04e5	90265	1.44e5	1.30e5	6770	inactive

Part of the list above, set out differently.
gene | reagent | induced reporter light, run 1, well a | induced reporter light, run 1, well b | control promoter light, run 1, well a | control promoter light, run 1, well b | uninduced reporter light, run 1, well a | activity call
unc-13 | 1 | 60580 | 63820 | 83905 | 90570 | 5665 | inactive
unc-13 | 2 | 65300 | 60105 | 92185 | 87415 | 4845 | inactive
unc-13 | 3 | 1.78e5 | 1.60e5 | 2.19e5 | 2.02e5 | 14470 | inactive
CG31368 | 1 | 57140 | 66010 | 71275 | 58170 | 5635 | inactive
CG31368 | 2 | 1.28e5 | 1.55e5 | 1.01e5 | 1.06e5 | 9395 | inactive

The listing continues:
no.	gene	reagent	induced reporter light, run 1, well a	induced reporter light, run 1, well b	control promoter light, run 1, well a	control promoter light, run 1, well b	uninduced reporter light, run 1, well a	activity call
27	GatA	1	1.65e5	2.02e5	2.11e5	2.19e5	15960	inactive
28	Dred	1	64475	52610	43640	42235	3995	inactive
29	Dred	2	1.96e5	1.92e5	2.53e5	2.45e5	14860	inactive
30	Cyp6a2	1	2.29e5	1.98e5	2.38e5	2.02e5	18505	inactive
31	CG2070	1	1.40e5	1.53e5	2.16e5	1.91e5	13120	inactive
32	CG31082 (retired record)	1	1.49e5	1.30e5	1.37e5	1.72e5	11315	inactive
33	Mpp6	1	35525	30285	34750	23245	2180	inactive
34	CG18336	1	1.05e5	1.31e5	1.46e5	1.55e5	11705	inactive
35	CG3408	1	1.33e5	1.18e5	1.69e5	1.61e5	7055	inactive
36	Naa30B	1	1.22e5	1.53e5	2.45e5	2.84e5	10805	inactive
37	CG7387	1	1.19e5	1.40e5	89030	60740	12778	inactive
38	Prp19	1	26755	20988	18528	22240	2645	inactive
39	CG3306	1	97365	82105	88075	46045	11170	inactive
40	ksh	1	84320	1.05e5	1.19e5	1.17e5	11705	inactive
41	DENR	1	87200	1.38e5	88045	52795	9080	inactive
42	CG16753	1	1.05e5	1.20e5	1.35e5	34040	14775	inactive
43	CG13171	1	87805	95620	1.25e5	1.29e5	9205	inactive
44	His4r	1	45465	54175	55175	49650	8160	inactive
45	CG31515	1	2.06e5	1.69e5	1.98e5	1.98e5	15095	inactive
46	CG42458	1	6520	5035	8000	3050	2295	inactive
47	CaMKII	1	1.68e5	2.10e5	2.32e5	2.33e5	13730	inactive
48	CG18095	1	1.61e5	1.66e5	1.65e5	1.73e5	14455	inactive
49	CG32855	1	1.04e5	1.48e5	1.47e5	1.38e5	10455	inactive
50	CG13073	1	1.67e5	1.80e5	1.29e5	1.19e5	9195	active
51	CG10324	1	1.72e5	1.94e5	1.86e5	1.92e5	12900	inactive
52	TyrR	1	2.35e5	1.83e5	2.59e5	2.68e5	15865	inactive
53	RhoGAP92B	1	2.20e5	2.00e5	2.16e5	2.18e5	17760	inactive
54	RhoGAP92B	2	1.81e5	1.90e5	2.23e5	2.06e5	14900	inactive
55	car	1	1.53e5	1.59e5	1.33e5	82605	13495	inactive
56	CG8958	1	90180	1.12e5	1.01e5	82180	12480	inactive
57	CG15446	1	1.04e5	1.03e5	1.41e5	1.38e5	11825	inactive
58	CG17266	1	1.89e5	1.88e5	2.09e5	1.51e5	13980	inactive
59	CG14455	1	1.56e5	91130	1.14e5	91930	6690	inactive
60	Vha100-2	1	2.08e5	2.06e5	2.34e5	2.52e5	18820	inactive
61	CG34460	1	92675	1.08e5	1.07e5	1.12e5	10728	inactive
62	CG16863	1	1.07e5	1.30e5	1.38e5	1.35e5	9855	inactive
63	RpL23	1	28050	22575	30085	29055	1782	inactive
64	pum	1	1.02e5	1.50e5	1.26e5	1.12e5	10500	inactive
65	pum	2	2.11e5	2.21e5	2.64e5	2.48e5	15930	inactive
66	pum	3	95155	91965	78020	57765	6870	inactive
67	pum	4	94790	96995	76980	72620	5055	inactive
68	pum	5						inactive
